Data published in PubChem BioAssay AID652054 (National Center for Advancing Translational Sciences (NCATS), 2013).
The campaign covered roughly 360,000 compounds. About 9,100 (2.5%) were called active. Inconclusive means that the source gave no clear call. Such entries were picked first, then a sample of the others. Cut-off read from the data, not from the text of the source: active = max response below about -50%; inconclusive = no clear call, values can overlap the other calls; inactive = above that.

Protein sequences, listed by entry. Tags and fused reporters are not part of them.
UniProt P35462, whole entry, looked up: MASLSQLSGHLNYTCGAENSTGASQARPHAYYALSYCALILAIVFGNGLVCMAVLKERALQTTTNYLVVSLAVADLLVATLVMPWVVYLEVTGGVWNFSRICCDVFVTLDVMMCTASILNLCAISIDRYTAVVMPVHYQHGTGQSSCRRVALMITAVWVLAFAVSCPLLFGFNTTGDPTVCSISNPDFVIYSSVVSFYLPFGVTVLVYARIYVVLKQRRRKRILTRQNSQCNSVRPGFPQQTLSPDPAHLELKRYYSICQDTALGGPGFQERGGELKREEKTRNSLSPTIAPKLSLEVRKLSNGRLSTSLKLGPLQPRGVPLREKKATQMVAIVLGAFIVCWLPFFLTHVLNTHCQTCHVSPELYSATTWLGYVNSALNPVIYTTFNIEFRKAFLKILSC

Each compound was assayed against D(3) dopamine receptor (Homo sapiens) (UniProt P35462) (assay: qHTS of D3 Dopamine Receptor Antagonist: qHTS). Conditions: D3R cells, DiscoveRx beta-arrestin luminescence, antagonist mode; active compounds read low.
In short: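 Cells plated overnight at 1500 cells/well, then exposed to library compounds with dopamine controls for 90 minutes at 37 degrees C. DiscoveRx reagent added for 30–60 minutes at room temperature; luminescence read, quantitative HTS format.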
% is set by controls: 0 for no effect and ±100 for the full control effect.

Max response, negative = inhibition, inconclusive:
S=c1[nH]nc(-c2cccnc2)n1/N=C/C=C/c1ccccc1 -32.4%
O=C(Nc1cccc(OC(=O)c2cccnc2)c1)c1cccnc1 -36.9%
C=CCCCN(Cc1ccccc1)S(=O)(=O)c1ccccc1Br -33.1%
O=C(CSc1nnc(CNC(=O)c2c(F)cccc2F)o1)Nc1ccc2c(c1)OCO2 -42.3%
COc1ccc(NS(=O)(=O)c2ccc(N)c(C(=O)O)c2)cc1 -42.4%
CCOc1ccc(CN(C)CCc2ccccn2)cc1 -42.6%
COc1ccc(C(CNC(=O)c2cc(S(=O)(=O)N3CCCCC3)ccc2C)N2CCCC2)cc1 (stereo not given) -46.7%
NC(=S)N/N=C/c1ccc(-c2cc(Cl)ccc2Cl)o1 -38.7%
Cc1nnc(Sc2cc(C(=O)NC3CC3)c3ccccc3n2)s1 -35.3%
CC(C)(C)n1nc2c(c1NC(=O)c1ccccc1S(=O)(=O)C(F)F)CS(=O)(=O)C2 -36.5%
CC1(C)SC(=Nc2ccccc2)N(S(=O)(=O)c2ccccc2)C1=O -49%
CCOc1ccc(OCCNC(=O)c2ccc3c(c2)nnn3CC)cc1 -33.9%
COc1cccc(Nc2nc(-c3cccc(N4C(=O)c5ccccc5C4=O)c3)cs2)c1 -45%
CCOC(=S)NC(=O)c1sc2ccccc2c1Cl -33.3%
O=C(Nc1nccs1)c1ccc(S(=O)(=O)NCC2CCCCC2)cc1 -46.8%
Cc1ccc(S(=O)(=O)N(CC(O)CN2CCCCC2)c2cccc([N+](=O)[O-])c2)cc1 (stereo not given) -43.2%
N#Cc1c(N)nc2c3c(sc(=N)c2c1N)NC(=O)CC3c1ccccc1Cl (stereo not given) -48.7%
O=S(=O)(NCCOc1ccccc1F)c1cccc(Br)c1 -42.5%
O=C1COc2ccccc2CN1 -49.9%
CC(C)OC(=O)CSc1nnc(-c2ccc(Cl)cc2Cl)n1N -36%
COc1ccccc1NC(=O)Nc1ccc2[nH]c(=O)[nH]c2c1 -43.4%
O=C(CCn1nc(-c2ccc(Cl)cc2)ccc1=O)NCCCN1CCCCCC1 -33.1%
Cc1c(C(C)(C)C)c(C=S)n2ccccc12 -38.2%
Cc1ccc(SCCCn2cncn2)cc1 -39.8%
O=c1cc2c(c(-c3ccccc3)n1Cc1ccccc1)[C@@H](CCO)NC2 -49.3%
O=C(NNS(=O)(=O)c1ccc(Cl)cc1)NC1CCCCC1 -36.6%
CCN(CC(=O)Nc1cc(Cl)cc(Cl)c1)CC(=O)NC1CCS(=O)(=O)C1 (stereo not given) -31%
Cc1ccc(CN2CCN(/N=C/c3ccc(Cl)c([N+](=O)[O-])c3)CC2)cc1 -35.9%
N#Cc1ccc(/C=N/NC(=S)Nc2ccc(S(=O)(=O)N3CCOCC3)cc2)cc1 -33.5%
CCN(CC)CC(O)CN(c1ccccc1)S(=O)(=O)c1ccc2ccccc2c1 (stereo not given) -43.1%
O=C(c1cc(F)c(F)cc1Cl)N1CCN(c2ccc([N+](=O)[O-])c3ncccc23)CC1 -49.1%

Two records picked at random from those above, as already listed:
Max response, negative = inhibition, inconclusive:
N#Cc1ccc(/C=N/NC(=S)Nc2ccc(S(=O)(=O)N3CCOCC3)cc2)cc1 -33.5%
Cc1ccc(S(=O)(=O)N(CC(O)CN2CCCCC2)c2cccc([N+](=O)[O-])c2)cc1 (stereo not given) -43.2%

Next part.

Max response, negative = inhibition, inactive:
O=C(NCc1cccs1)C1CCCN(S(=O)(=O)c2cccc3cccnc23)C1 (stereo not given) 19.4%
Nc1ccc2c3c(cccc13)CC2 -13%
CCOC(=O)C1CCN(C(=O)Cn2nc(C)n3cccc3c2=O)CC1 15.3%
O=C(CN1C(=O)C2C3C=CC(C3)C2C1=O)Nc1cccc(S(=O)(=O)N2CCCC2)c1 (stereo not given) -18.5%
COc1ccc(CCCNC(=O)C2Cc3c(-c4cccc(C(C)=O)c4)ccnc3O2)cc1 (stereo not given) -2.12%
COc1ccc(NC(=S)NC(=O)/C=C/c2ccco2)cc1 8.93%
CCP(=O)(c1ccccc1)C(C)(C)O (stereo not given) 10.9%
CC1(C)Cc2nc(Cl)c(C#N)cc2CO1 -11.2%
COc1ccc(CCn2c(C)cc(C(=O)COC(=O)c3ccc(NC(=O)CC#N)cc3)c2C)cc1 15.8%

Max response, negative = inhibition, active:
COc1cccc(OC)c1OCCCN1CCC(Cc2ccccc2)CC1 -95.2%
COc1ccc(CC(C)N2CCN(c3cccc(C(F)(F)F)c3)CC2)cc1OC (stereo not given) -87.8%
CCC(C)c1ccc(O)c(NC(=S)NC(=O)c2cccnc2)c1 (stereo not given) -63.3%
COc1ccc(C(=O)/C(=C\c2ccco2)N2C=CC=CC2=C(C#N)C#N)cc1 -64.6%
CSc1ccc(CN2CCC(C)(Oc3ccc(C(C)=O)cc3)C2)cc1 (stereo not given) -69.2%
